Patent publication EP4538294A1

B1: Tri-46 (trispecific antibody, V domains shown)
VHH: EVQLVESGGGLVQPGGSLRLSCAASESISSIHIMAWYRQAPGKQRELVAGIRNDGSTVYVDSVKGRFTISRDNAKNSLYLQMNSLRAEDTAVYYCNADQGFGSYSEWERRSRWGQGTTVTVSS
VH 1: EVQLVQSGAEVKKPGSSVKVSCKASGYTFTSYGISWVRQAPGQGLEWMGEIYPRSGNTYYNEKFKGRVTLTADKSTSTAYMELSSLRSEDTAVYYCARGRAYGRNYPMDYWGQGTTVTVSS
VL 1: EIVLTQSPATLSLSPGERATLSCRASQSIGTSIHWYQQKPGQSPRLLIKYASESISGIPARFSGSGSGTDFTLTISSLEPEDFAVYYCQQSNSWPYTFGGGTKVEIK
VH 2: EVQLVESGGGVVQPGRSLRLSCAASGFTFTDYYMSWVRQAPGKGLEWVAMSRNKAKGHTIEYSSSVKGRFTISRDNSKNTLYLQMNSLRAEDTAVYYCARDTYESYDGYFDVWGQGTTVTVSS
VL 2: DIVMTQSPDSLAVSLGERATINCKSSQSLFNSRSRKNYLAWYQQKPGQTPKLLIYWASIRESGVPDRFSGSGSGTDFTLTISSLQAEDVAVYYCKQSYYLYTFGQGTKLEIK
B2: Tri-52 (trispecific antibody, V domains shown)
VHH: B1 VHH
VH 1: B1 VH 1
VL 1: B1 VL 1
VH 2: B1 VH 2
VL 2: B1 VL 2
B3: Tri-64 (trispecific antibody, V domains shown)
VHH: B1 VHH
VH 1: B1 VH 1
VL 1: B1 VL 1
VH 2: B1 VH 2
VL 2: B1 VL 2
B4: Tri-56 (trispecific antibody, V domains shown)
VHH: B1 VHH
VH 1: B1 VH 1
VL 1: B1 VL 1
VH 2: B1 VH 2
VL 2: B1 VL 2
B5: Tri-63 (trispecific antibody, V domains shown)
VHH: B1 VHH
VH 1: B1 VH 1
VL 1: B1 VL 1
VH 2: B1 VH 2
VL 2: B1 VL 2
B6: Tri-49 (trispecific antibody, V domains shown)
VHH: B1 VHH
VH 1: B1 VH 1
VL 1: B1 VL 1
VH 2: B1 VH 2
VL 2: B1 VL 2
B7: Tri-55 (trispecific antibody, V domains shown)
VHH: B1 VHH
VH 1: B1 VH 1
VL 1: B1 VL 1
VH 2: B1 VH 2
VL 2: B1 VL 2
B8: Tri-65 (trispecific antibody, V domains shown)
VHH: B1 VHH
VH 1: EVQLVQSGAEVKKPGASVKVSCKTSGYIFTNFGITWVRQAPGQRLEWMGENYPRRINTYYNEKFKGRVTITADKSASTAYMELSSLRSEDTAVYYCSRKDIFGLSYALDYWGQGTTVTVSS
VL 1: DIQMTQSPSSLSASVGDRVTITCKASQNVGTNVAWYQHKPGKSPKALIYSASYQYSGVPSRFSGSGSGTDFTLTISSLQPEDVATYICQQYKNYPYTFGGGTKVEIK
VH 2: B1 VH 2
VL 2: B1 VL 2
B9: Tri-59 (trispecific antibody, V domains shown)
VHH: B1 VHH
VH 1: B1 VH 1
VL 1: B1 VL 1
VH 2: B1 VH 2
VL 2: B1 VL 2
B10: Tri-66 (trispecific antibody, V domains shown)
VHH: B1 VHH
VH 1: B8 VH 1
VL 1: B8 VL 1
VH 2: B1 VH 2
VL 2: B1 VL 2

Each binder was assayed against monkey CD3 on activated monkey PBMC (monkey) (assay: FACS, activated monkey PBMC).

Row | binding | Binder
1 | binds | B1
2 | binds | B2
3 | binds | B3
4 | binds | B4
5 | binds | B5
6 | binds | B6
7 | binds | B7
8 | binds | B8
9 | binds | B9
10 | binds | B10

No constants are given. Whether binding was seen depends on the method and setting. Binding can be weak; no strength is given.
